PubChem BioAssay AID1259308 – NCATS – 2017
Here is an unselected part of about 59,000 reagents. About 1,510 of them (2.6%) count as active. 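Calls use total luciferase alone and ignore viability, so some active siRNAs may act by altering cell number.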 Entries without a mark were called inactive. Reagents against one gene are numbered here. Not all columns of the deposit are shown.

Purpose: 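Knock-downs that increase output of a recombinant reporter protein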 (primary screen)
System: human HEK293 embryonic kidney cells stably expressing firefly luciferase (HEK-CMV-Luc2-Hygro)
Reagents: single siRNA against human genes, 0.8 pmol siRNA per well
Duration: 72 h
Measured: 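Luciferase light (ONE-Glo) measured on one replicate plate set and viability (CellTiter-Glo) on the other, scaled to a negative control siRNA, with robust z-scores and luciferase per cell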
Reading the numbers: total luciferase, z-score and total luciferase, % of control: higher = more reporter protein produced
Rule for the call: 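An siRNA counts as active if its total luciferase robust z-score exceeds 3; genes with two or more such siRNAs out of three were retested with fresh siRNAs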
Calls: active = raised luciferase; inactive = no rise

For POLR3B #1, what does the deposit list?
total luciferase, z-score: 2.11; total luciferase, % of control: 124

For POLR3B #2, how do the results read?
total luciferase, z-score: 0.131; total luciferase, % of control: 84.5

With POLR3B #3, what was measured?
total luciferase, z-score: -1.06; total luciferase, % of control: 60.8

With GABARAP #1, how do the results read?
total luciferase, z-score: -0.361; total luciferase, % of control: 74.7

What did the screen give for GABARAP #2?
total luciferase, z-score: -0.0574; total luciferase, % of control: 80.7

For GABARAP #3, how do the results read?
total luciferase, z-score: -0.273; total luciferase, % of control: 76.4

Limited to “total luciferase, z-score”, for 2 of the entries above:
POLR3B #1 = 2.11
POLR3B #2 = 0.131

The list goes on.
What is on record for LINC00207 #1?
total luciferase, z-score: 0.151; total luciferase, % of control: 84.9

For LINC00207 #2, what was measured?
total luciferase, z-score: -0.21; total luciferase, % of control: 77.7

For LINC00207 #3, what does the deposit list?
total luciferase, z-score: -1.9; total luciferase, % of control: 44.1

With THAP2 #1, how do the results read?
total luciferase, z-score: -0.443; total luciferase, % of control: 73.1

How did the screen score THAP2 #2?
total luciferase, z-score: 1.7; total luciferase, % of control: 116

What is on record for THAP2 #3?
total luciferase, z-score: -0.213; total luciferase, % of control: 77.6
